{"source": "patent US7632972B2", "about": "“Compounds and methods for treatment of cancer and modulation of programmed cell death for melanoma and other cancer cells” (The Board of Trustees of the University of Illionis, priority 2003, dated 2009)", "format_in_all_cases": "cell-based, human", "key": {"HOP-62": {"test_system": "HOP-62", "assay": "NCI 60 cell line screen (SRB), Non-Small Cell Lung Cancer", "from_the_text": "(§1) The operation of this screen utilizes 60 different human tumor cell lines, representing leukemia, melanoma and cancers of the lung, colon, brain, ovary, breast, prostate, and kidney. The aim is to prioritize for further evaluation, synthetic compounds or natural product samples showing selective growth inhibition or cell killing of particular tumor cell lines. This screen is unique in that the complexity of a 60 cell line dose response produced by a given compound results in a biological response pattern which can be utilized in pattern recognition algorithms. Using these algorithms, it is possible to assign a putative mechanism of action to a test compound, or to determine that the response pattern is unique and not similar to that of any of the standard prototype compounds included in the NCl database (see DTP Overview tab). In addition, following characterization of various cellular molecular targets in the 60 cell lines, it may be possible to select compounds most likely to interact with a specific molecular target.\n(§2) The human tumor cell lines of the cancer screening panel are grown in RPMI 1640 medium containing 5% fetal bovine serum and 2 mM L-glutamine. For a typical screening experiment, cells are inoculated into 96 well microtiter plates in 100 μL at plating densities ranging from 5,000 to 40,000 cells/well depending on the doubling time of individual cell lines. After cell inoculation, the microtiter plates are incubated at 37° C., 5% CO2, 95% air and 100% relative humidity for 24 h prior to addition of experimental drugs.\n(§3) After 24 h, two plates of each cell line are fixed in situ with TCA, to represent a measurement of the cell population for each cell line at the time of drug addition (Tz). Experimental drugs are solubilized in dimethyl sulfoxide at 400-fold the desired final maximum test concentration and stored frozen prior to use. At the time of drug addition, an aliquot of frozen concentrate is thawed and diluted to twice the desired final maximum test concentration with complete medium containing 50 μg/ml gentamicin. Additional four, 10-fold or ½ log serial dilutions are made to provide a total of five drug concentrations plus control. Aliquots of 100 μl of these different drug dilutions are added to the appropriate microtiter wells already containing 100 μl of medium, resulting in the required final drug concentrations.\n(§4) Following drug addition, the plates are incubated for an additional 48 h at 37° C., 5% CO2, 95% air, and 100% relative humidity. For adherent cells, the assay is terminated by the addition of cold TCA. Cells are fixed in situ by the gentle addition of 50 μl of cold 50% (w/v) TCA (final concentration, 10% TCA) and incubated for 60 minutes at 4° C. The supernatant is discarded, and the plates are washed five times with tap water and air dried. Sulforhodamine B (SRB) solution (100 μl) at 0.4% (w/v) in 1% acetic acid is added to each well, and plates are incubated for 10 minutes at room temperature. After staining, unbound dye is removed by washing five times with 1% acetic acid and the plates are air dried. Bound stain is subsequently solubilized with 10 mM trizma base, and the absorbance is read on an automated plate reader at a wavelength of 515 nm. For suspension cells, the methodology is the same except that the assay is terminated by fixing settled cells at the bottom of the wells by gently adding 50 μl of 80% TCA (final concentration, 16% TCA). Using the seven absorbance measurements [time zero, (Tz), control growth, (C), and test growth in the presence of drug at the five concentration levels (Ti)], the percentage growth is calculated at each of the drug concentrations levels. Percentage growth inhibition is calculated as: [(Ti−Tz)/(C−Tz)]×100 for concentrations for which Ti>/=Tz [(Ti−Tz)/Tz]×100 for concentrations for which Ti<Tz.\n(§5) Three dose response parameters are calculated for each experimental agent. […]"}, "NCI-H522": {"test_system": "NCI-H522", "assay": "NCI 60 cell line screen (SRB), Non-Small Cell Lung Cancer", "from_the_text": "as §1, §2, §3, §4, §5"}, "HOP-92": {"test_system": "HOP-92", "assay": "NCI 60 cell line screen (SRB), Non-Small Cell Lung Cancer", "from_the_text": "as §1, §2, §3, §4, §5"}, "A549/ATCC": {"test_system": "A549/ATCC", "assay": "NCI 60 cell line screen (SRB), Non-Small Cell Lung Cancer", "from_the_text": "as §1, §2, §3, §4, §5"}, "DU-145": {"test_system": "DU-145", "assay": "NCI 60 cell line screen (SRB), Prostate Cancer", "from_the_text": "as §1, §2, §3, §4, §5"}, "PC-3": {"test_system": "PC-3", "assay": "NCI 60 cell line screen (SRB), Prostate Cancer", "from_the_text": "as §1, §2, §3, §4, §5"}, "MDA-MB-231/ATCC": {"test_system": "MDA-MB-231/ATCC", "assay": "NCI 60 cell line screen (SRB), Breast Cancer", "from_the_text": "as §1, §2, §3, §4, §5"}, "MCF7": {"test_system": "MCF7", "assay": "NCI 60 cell line screen (SRB), Breast Cancer", "from_the_text": "as §1, §2, §3, §4, §5"}, "MOLT-4": {"test_system": "MOLT-4", "assay": "NCI 60 cell line screen (SRB), Leukemia", "from_the_text": "as §1, §2, §3, §4, §5"}, "RPMI-8226": {"test_system": "RPMI-8226", "assay": "NCI 60 cell line screen (SRB), Leukemia", "from_the_text": "as §1, §2, §3, §4, §5"}, "K-562": {"test_system": "K-562", "assay": "NCI 60 cell line screen (SRB), Leukemia", "from_the_text": "as §1, §2, §3, §4, §5"}}, "data": [{"smiles": "COc1cccc(CCNC(=O)CC(c2ccccc2)(c2ccccc2)c2ccccc2)c1", "note": "[Compound Z3]", "values": [{"measurement": "Mean Optical Densities", "setting": "HOP-62; HOP-62, Log10 Concentration −4.0", "result": 0.545}, {"measurement": "Mean Optical Densities", "setting": "HOP-62; HOP-62, Log10 Concentration −5.0", "result": 0.722}, {"measurement": "Mean Optical Densities", "setting": "HOP-62; HOP-62, Log10 Concentration −6.0", "result": 0.781}, {"measurement": "Mean Optical Densities", "setting": "HOP-62; HOP-62, Log10 Concentration −7.0", "result": 0.811}, {"measurement": "Mean Optical Densities", "setting": "HOP-62; HOP-62, Log10 Concentration −8.0", "result": 0.757}, {"measurement": "Mean Optical Densities", "setting": "NCI-H522; NCI-H522, Log10 Concentration −4.0", "result": 0.808}, {"measurement": "Mean Optical Densities", "setting": "NCI-H522; NCI-H522, Log10 Concentration −5.0", "result": 0.859}, {"measurement": "Mean Optical Densities", "setting": "NCI-H522; NCI-H522, Log10 Concentration −6.0", "result": 1.018}, {"measurement": "Mean Optical Densities", "setting": "NCI-H522; NCI-H522, Log10 Concentration −7.0", "result": 0.976}, {"measurement": "Mean Optical Densities", "setting": "NCI-H522; NCI-H522, Log10 Concentration −8.0", "result": 1.047}, {"measurement": "Mean Optical Densities", "setting": "HOP-92; HOP-92, Log10 Concentration −4.0", "result": 0.924}, {"measurement": "Mean Optical Densities", "setting": "HOP-92; HOP-92, Log10 Concentration −5.0", "result": 0.950}, {"measurement": "Mean Optical Densities", "setting": "HOP-92; HOP-92, Log10 Concentration −6.0", "result": 1.181}, {"measurement": "Mean Optical Densities", "setting": "HOP-92; HOP-92, Log10 Concentration −7.0", "result": 1.186}, {"measurement": "Mean Optical Densities", "setting": "HOP-92; HOP-92, Log10 Concentration −8.0", "result": 1.227}, {"measurement": "Mean Optical Densities", "setting": "A549/ATCC; Log10 Concentration −4.0", "result": 0.369}, {"measurement": "Mean Optical Densities", "setting": "A549/ATCC; Log10 Concentration −5.0", "result": 0.503}, {"measurement": "Mean Optical Densities", "setting": "A549/ATCC; Log10 Concentration −6.0", "result": 0.825}, {"measurement": "Mean Optical Densities", "setting": "A549/ATCC; Log10 Concentration −7.0", "result": 0.851}, {"measurement": "Mean Optical Densities", "setting": "A549/ATCC; Log10 Concentration −8.0", "result": 0.895}, {"measurement": "Mean Optical Densities", "setting": "DU-145; DU-145, Log10 Concentration −4.0", "result": 0.329}, {"measurement": "Mean Optical Densities", "setting": "DU-145; DU-145, Log10 Concentration −5.0", "result": 0.431}, {"measurement": "Mean Optical Densities", "setting": "DU-145; DU-145, Log10 Concentration −6.0", "result": 0.504}, {"measurement": "Mean Optical Densities", "setting": "DU-145; DU-145, Log10 Concentration −7.0", "result": 0.521}, {"measurement": "Mean Optical Densities", "setting": "DU-145; DU-145, Log10 Concentration −8.0", "result": 0.506}, {"measurement": "Mean Optical Densities", "setting": "PC-3; PC-3, Log10 Concentration −4.0", "result": 0.439}, {"measurement": "Mean Optical Densities", "setting": "PC-3; PC-3, Log10 Concentration −5.0", "result": 0.640}, {"measurement": "Mean Optical Densities", "setting": "PC-3; PC-3, Log10 Concentration −6.0", "result": 1.008}, {"measurement": "Mean Optical Densities", "setting": "PC-3; PC-3, Log10 Concentration −7.0", "result": 1.050}, {"measurement": "Mean Optical Densities", "setting": "PC-3; PC-3, Log10 Concentration −8.0", "result": 1.080}, {"measurement": "Mean Optical Densities", "setting": "MDA-MB-231/ATCC; Log10 Concentration −4.0", "result": 0.941}, {"measurement": "Mean Optical Densities", "setting": "MDA-MB-231/ATCC; Log10 Concentration −5.0", "result": 0.768}, {"measurement": "Mean Optical Densities", "setting": "MDA-MB-231/ATCC; Log10 Concentration −6.0", "result": 0.732}, {"measurement": "Mean Optical Densities", "setting": "MDA-MB-231/ATCC; Log10 Concentration −7.0", "result": 0.755}, {"measurement": "Mean Optical Densities", "setting": "MDA-MB-231/ATCC; Log10 Concentration −8.0", "result": 0.752}, {"measurement": "Mean Optical Densities", "setting": "MCF7; MCF7, Log10 Concentration −4.0", "result": 0.245}, {"measurement": "Mean Optical Densities", "setting": "MCF7; MCF7, Log10 Concentration −5.0", "result": 0.367}, {"measurement": "Mean Optical Densities", "setting": "MCF7; MCF7, Log10 Concentration −6.0", "result": 0.475}, {"measurement": "Mean Optical Densities", "setting": "MCF7; MCF7, Log10 Concentration −7.0", "result": 0.605}, {"measurement": "Mean Optical Densities", "setting": "MCF7; MCF7, Log10 Concentration −8.0", "result": 0.498}, {"measurement": "Mean Optical Densities", "setting": "MOLT-4; MOLT-4, Log10 Concentration −4.0", "result": 0.229}, {"measurement": "Mean Optical Densities", "setting": "MOLT-4; MOLT-4, Log10 Concentration −5.0", "result": 0.233}, {"measurement": "Mean Optical Densities", "setting": "MOLT-4; MOLT-4, Log10 Concentration −6.0", "result": 0.551}, {"measurement": "Mean Optical Densities", "setting": "MOLT-4; MOLT-4, Log10 Concentration −7.0", "result": 0.623}, {"measurement": "Mean Optical Densities", "setting": "MOLT-4; MOLT-4, Log10 Concentration −8.0", "result": 0.588}, {"measurement": "Mean Optical Densities", "setting": "RPMI-8226; RPMI-8226, Log10 Concentration −4.0", "result": 0.416}, {"measurement": "Mean Optical Densities", "setting": "RPMI-8226; RPMI-8226, Log10 Concentration −5.0", "result": 0.450}, {"measurement": "Mean Optical Densities", "setting": "RPMI-8226; RPMI-8226, Log10 Concentration −6.0", "result": 0.945}, {"measurement": "Mean Optical Densities", "setting": "RPMI-8226; RPMI-8226, Log10 Concentration −7.0", "result": 0.954}, {"measurement": "Mean Optical Densities", "setting": "RPMI-8226; RPMI-8226, Log10 Concentration −8.0", "result": 0.898}, {"measurement": "Mean Optical Densities", "setting": "K-562; K-562, Log10 Concentration −4.0", "result": 0.445}, {"measurement": "Mean Optical Densities", "setting": "K-562; K-562, Log10 Concentration −5.0", "result": 0.491}, {"measurement": "Mean Optical Densities", "setting": "K-562; K-562, Log10 Concentration −6.0", "result": 1.198}, {"measurement": "Mean Optical Densities", "setting": "K-562; K-562, Log10 Concentration −7.0", "result": 1.195}, {"measurement": "Mean Optical Densities", "setting": "K-562; K-562, Log10 Concentration −8.0", "result": 1.213}]}]}
